From patent publication US20070218486A1, “Immunoassays, Haptens, Immunogens and Antibodies for Anti-HIV Therapeutics” (Ark Diagnostics, Inc., priority 2006, published 2007)
For at least one compound, name, drawing or mass did not settle the structure.

Tested on: Anti-(H12)2
Assay: Homogeneous enzyme immunoassay for tipranavir, standard curve
Format: binding, rabbit
Conditions: Enzyme Conjugate (H12)/G6PDH Reagent

With CCC[C@@]1(CCc2ccccc2)CC(O)=C([C@H](CC)c2cccc(NS(=O)(=O)c3ccc(C(F)(F)F)cn3)c2)C(=O)O1 [Tipranavir] the “Reaction Rate (mA/min) Average of Duplicates” value (shortened to “Reaction Rate (mA/min) Average”) (Tipranavir Concentration 5.00 μg/mL) was 400.0 mA/min, the “Reaction Rate (mA/min) Average” value (Tipranavir Concentration 10.00 μg/mL) was 434.0 mA/min and the “Reaction Rate (mA/min) Average” value (Tipranavir Concentration 25.00 μg/mL) was 487.6 mA/min. For the same compound, the “Reaction Rate (mA/min) Average” value (Tipranavir Concentration 50.00 μg/mL) was 532.3 mA/min.
